Measurements taken from article PMC5847153.
Results are given in words; binding and its absence hold for the method and conditions named. In cells and extracts the contact can be indirect. Here binding means that the protein was enriched with, or labelled near, the bait; the list need not be complete.

By UniProt entry, the sequences of proteins in these tests, tags left out.
UniProt P48432: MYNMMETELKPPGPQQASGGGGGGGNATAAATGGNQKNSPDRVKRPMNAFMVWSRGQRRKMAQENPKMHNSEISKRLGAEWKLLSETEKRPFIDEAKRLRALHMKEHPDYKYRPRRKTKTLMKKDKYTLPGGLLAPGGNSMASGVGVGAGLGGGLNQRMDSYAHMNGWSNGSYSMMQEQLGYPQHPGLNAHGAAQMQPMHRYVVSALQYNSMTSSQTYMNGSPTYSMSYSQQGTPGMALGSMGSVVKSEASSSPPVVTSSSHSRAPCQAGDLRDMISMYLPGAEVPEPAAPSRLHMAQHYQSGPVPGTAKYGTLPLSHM

Experiments:
[1] = target: bioSox2 (bio-TEV-Sox2), biotinylated by birA (mouse) (UniProt P48432); experiment: affinity purification with mass spectrometry; bioSox2 complexes from nuclear extracts of E18.5 lungs of bioSox2/birA mice held on streptavidin Dynabeads M-280, 4 °C, wash with 100 mM KCl and 0.02% NP-40; birA-only mice as control; MALDI-TOF MS; in triplicate
[2] = target: bioSox2 (bio-TEV-Sox2), biotinylated by birA (mouse), P48432; experiment: as above; details: remark: other sources report otherwise

Row | binding [1] | binding [2] | Binder
1 | binds | – | Dyskerin (protein, UniProt Q9ESX5 1-509) MADAEVITFPKKHKKKKDRKPLQEDDVAEIQHAEEFLIKPESKVAQLDTSQWPLLLKNFDKLNVRTAHYTPLPCGSNPLKREIGDYIRTGFINLDKPSNPSSHEVVAWIRRILRVEKTGHSGTLDPKVTGCLIVCIERATRLVKSQQSAGKEYVGIVRLHNAIEGGTQLSRALETLTGALFQRPPLIAAVKRQLRVRTIYESKMIEYDPERRLGIFWVSCEAGTYIRTLCVHLGLLLGVGGQMQELRRVRSGVMSEKDHMVTMHDVLDAQWLYDNHKDESYLRRVVYPLEKLLTSHKRLVMKDSAVNAICYGAKIMLPGLLRYEDGIEVNQEIVVITTKGEAICMAIALMTTAVISTCDHGIVAKIKRVIMERDTYPRKWGLGPKASQKKMMIKQGLLDKHGKPTDNTPATWKQDYIDYSDSGKNTLVTEAVQAPQLAAEAVNVIKRKRDSESESDETPTVPQLKEKKKKKDKKPKTVLESGGETGDGDNDTTKKKKKKKVKVVEEMSE
2 | binds | – | Cavin1 (Ptrf) (protein, UniProt O54724 1-392) MEDVTLHIVERPYSGFPDASSEGPEPTQGEARATEEPSGTGSDELIKSDQVNGVLVLSLLDKIIGAVDQIQLTQAQLEERQAEMEGAVQSIQGELSKLGKAHATTSNTVSKLLEKVRKVSVNVKTVRGSLERQAGQIKKLEVNEAELLRRRNFKVMIYQDEVKLPAKLSVSKSLKESEALPEKEGDELGEGERPEDDTAAIELSSDEAVEVEEVIEESRAERIKRSGLRRVDDFKKAFSKEKMEKTKVRTRENLEKTRLKTKENLEKTRHTLEKRMNKLGTRLVPVERREKLKTSRDKLRKSFTPDHVVYARSKTAVYKVPPFTFHVKKIREGEVEVLKATEMVEVGPEDDEVGAERGEATDLLRGSSPDVHTLLEITEESDAVLVDKSDSD
3 | – | binds | Tcf3 (endogenous), Q9Z1J1 1-584 (protein, here or on the partner: biotin on a specific lysine of the biotag (by birA)) MPQLGGGRGGAGGGGGGSGAGATSGGDDLGANDELIPFQDEGGEEQEPSSDTASAQRDLDEVKSSLVNESENQSSSSDSEAERRPQPARDAFQKPRDYFAEVRRPQDGAFFKGGAYPGYPFLMIPDLSSPYLSNGPLSPGGARTYLQMKWPLLDVPSSATVKDTRSPSPAHLSNKVPVVQHPHHMHPLTPLITYSNDHFSPASPPTHLSPEIDPKTGIPRPPHPSELSPYYPLSPGAVGQIPHPLGWLVPQQGQPMYSLPPGGFRHPYPALAMNASMSSLVSSRFPHMVAPAHPGLPTSGIPHPAIVSPIVKQEPAAPSLSPAVSAKSPVTVKKEEEKKPHVKKPLNAFMLYMKEMRAKVVAECTLKESAAINQILGRKWHNLSREEQAKYYELARKERQLHAQLYPTWSARDNYGKKKKRKREKQLSQTQSQQQIQEAEGALASKSKKPCIQYLPPEKPCDSPASSHGSALDSPATPSAALASPAAPAATHSEQAQPLSLTTKPEARAQLALHSAAFLSAKAAASNSSQMGSQPPLLSRPLPLGSMPAALLTSPPTFPATLHAHQALPVLQAQPLSLVTKSAH
